Assay results published in PubChem BioAssay AID2685 (National Center for Advancing Translational Sciences (NCATS), 2010).
The list shows a part of the results. Shown are side measurements of this screen, not its main read-out; they come without a call. Most of these compounds were active or inconclusive in the main read-out, so they are no random draw. Potencies come from curve fits of mixed quality, noted in brackets.

Experiment: qHTS Assay for Lipid Storage Modulators in Drosophila S3 Cells;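 as to cell number change: cells counted by Cell Tracker Red CMTPX staining in the red channel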
Conditions: BODIPY lipid droplet fluorescence, 18-24 h; for cell number change: measured here: cell count max response, cells fed with added oleic acid
Method in brief: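 Drosophila S3 cells loaded with oleic acid (400 uM, as added) and compounds at several concentrations; lipid droplets imaged by 488-nm laser-scanning cytometry, 500–530 nm intensity and object ratio to cell channel. Percent activity normalized to 20 uM Triacsin C.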

[1] = measured here: lipid fluorescence (Fed channel) AC50, cells fed with added oleic acid
[2] = measured here: cell number channel AC50, cells fed with added oleic acid

Structure (SMILES) | cell number change [%] | AC50 [1] | AC50 [2]
CC(C)c1onc(C(=O)Nc2cccc(Cl)c2)c1[N+](=O)[O-] | 23.5 | 29100 nM [rising, single point] | –
COC(=O)c1c(NC(=O)c2ccco2)sc(C)c1C | -3.13 | 731 nM [rising, partial curve, poor fit] | –
Cc1nc(CC(=O)NNS(=O)(=O)c2ccc3ccccc3c2)cs1 | -24.8 | 651 nM [falling, full curve, poor fit] | –
CCCC(c1nnnn1C1CCCC1)N1CCN(C(=O)c2ccco2)CC1 (centres undefined) | 14.4 | 326 nM [rising, partial curve] | 259 nM [rising, full curve, poor fit]
COc1ccc(S(=O)(=O)N2CCC(C(=O)NCCCn3ccnc3)CC2)cc1C | 16.7 | 103 nM [rising, single point] | –
Cc1c(Cl)cccc1NC(=O)CC1Oc2ccccc2NC1=O (centres undefined) | 13.9 | 8.2 nM [rising, full curve, poor fit] | –
O=C1CCc2cc(S(=O)(=O)NCCC(=O)NC3CCN(Cc4ccccc4)CC3)ccc2N1 | -27.4 | 32600 nM [falling, single point] | –
O=[N+]([O-])c1ccccc1CNCCCCO | -14.5 | 16400 nM [rising, partial curve, poor fit] | –
CCCCOC(=O)Nc1nc(CC(=O)OCC)cs1 | -1.28 | – | –
COC(=O)CC1C(=O)NCCN1C(=O)CSc1nc2ccccc2o1 (centres undefined) | -4.87 | – | –
CCN(CC)c1ccc(NS(=O)(=O)c2ccc3c(c2)oc(=O)n3C)c(C)c1 | – | 130 nM [rising, single point] | 130 nM [rising, single point]
Cc1ccc(NC(=S)N2CCN(S(=O)(=O)c3ccccc3)CC2)cc1 | 41.9 | 29100 nM [rising, single point] | 731 nM [rising, full curve]
CS(=O)(=O)N(CC(=O)N1CCCC1)Cc1ccc(F)cc1 | -22.5 | – | –
COc1ccc(NC(=O)CSc2nc3ccccc3c(=O)n2CCC(=O)N2CCCCC2)cc1 | -6.9 | 29100 nM [falling, single point] | –
S=c1[nH]c(-c2cccs2)cn1-c1ccccc1 | 21 | 29100 nM [rising, single point] | –
O=S(=O)(Nc1ccc2c3c(cccc13)CC2)c1ccc(F)cc1 | -27.1 | 9200 nM [falling, partial curve, poor fit] | –
CN(CC1CCN(CCc2cccc(C(F)(F)F)c2)CC1)C(=O)c1ccccc1 | 4.71 | – | –
O=C(O)c1ccccc1C(=O)OCCc1cc2ccccc2c(=O)o1 | -6.67 | 16400 nM [rising, single point] | –

Retrieved one by one from the list above (two):
Structure (SMILES) | cell number change [%] | AC50 [1] | AC50 [2]
CS(=O)(=O)N(CC(=O)N1CCCC1)Cc1ccc(F)cc1 | -22.5 | – | –
COc1ccc(NC(=O)CSc2nc3ccccc3c(=O)n2CCC(=O)N2CCCCC2)cc1 | -6.9 | 29100 nM [falling, single point] | –
